We go through 2 molecules from paper PMC4565980.

The target in assay [1] is v5-tagged lamin A, in vitro translated (human) (UniProt P02545). As to the kind of experiment: co-IP; in vitro transcribed/translated proteins, 20 µl of each mixed, 4 µg anti-v5 antibody and protein-G Dynabeads in PBS for 12 hr at 4°C; washes in 0.5% sodium deoxycholate, 150 mM NaCl, 1% NP-40, 0.1% SDS, 50 mM TRIS pH 7.4; western blot, prey normalised to the v5 signal.
Assay [2] addresses T1, v5-tagged lamin A, in vitro translated (human), P02545.
T1 chain: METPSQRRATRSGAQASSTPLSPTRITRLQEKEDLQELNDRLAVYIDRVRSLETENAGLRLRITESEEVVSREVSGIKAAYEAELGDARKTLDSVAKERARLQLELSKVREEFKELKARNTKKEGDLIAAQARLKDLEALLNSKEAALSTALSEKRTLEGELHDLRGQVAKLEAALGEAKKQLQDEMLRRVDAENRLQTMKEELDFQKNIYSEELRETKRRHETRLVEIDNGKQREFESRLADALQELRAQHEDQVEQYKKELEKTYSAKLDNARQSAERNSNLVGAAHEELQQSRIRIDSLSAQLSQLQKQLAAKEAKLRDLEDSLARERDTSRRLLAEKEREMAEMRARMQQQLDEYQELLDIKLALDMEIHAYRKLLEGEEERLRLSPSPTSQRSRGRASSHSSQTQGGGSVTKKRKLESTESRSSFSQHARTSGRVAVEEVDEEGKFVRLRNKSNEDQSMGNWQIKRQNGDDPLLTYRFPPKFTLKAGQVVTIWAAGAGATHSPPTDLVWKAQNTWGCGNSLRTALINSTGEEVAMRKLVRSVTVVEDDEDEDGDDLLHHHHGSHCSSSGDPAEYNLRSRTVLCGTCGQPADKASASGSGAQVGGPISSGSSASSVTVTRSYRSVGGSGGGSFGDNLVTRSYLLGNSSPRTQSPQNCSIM
The description is as above. The settings on record: remark: other sources report otherwise.

No constants are given. Whether binding was seen depends on the method and setting. In cells and extracts the contact can be indirect. Some entries that bind do so weakly or less than the wild type. Tags and fused reporters may be left off the sequences shown.

B1: myc-LAP2α, in vitro translated (protein, UniProt P42166 1-694)
chain: MPEFLEDPSVLTKDKLKSELVANNVTLPAGEQRKDVYVQLYLQHLTARNRPPLPAGTNSKGPPDFSSDEEREPTPVLGSGAAAAGRSRAAVGRKATKKTDKPRQEDKDDLDVTELTNEDLLDQLVKYGVNPGPIVGTTRKLYEKKLLKLREQGTESRSSTPLPTISSSAENTRQNGSNDSDRYSDNEEGKKKEHKKVKSTRDIVPFSELGTTPSGGGFFQGISFPEISTRPPLGSTELQAAKKVHTSKGDLPREPLVATNLPGRGQLQKLASERNLFISCKSSHDRCLEKSSSSSSQPEHSAMLVSTAASPSLIKETTTGYYKDIVENICGREKSGIQPLCPERSHISDQSPLSSKRKALEESESSQLISPPLAQAIRDYVNSLLVQGGVGSLPGTSNSMPPLDVENIQKRIDQSKFQETEFLSPPRKVPRLSEKSVEERDSGSFVAFQNIPGSELMSSFAKTVVSHSLTTLGLEVAKQSQHDKIDASELSFPFHESILKVIEEEWQQVDRQLPSLACKYPVSSREATQILSVPKVDDEILGFISEATPLGGIQAASTESCNQQLDLALCRAYEAAASALQIATHTAFVAKAMQADISQAAQILSSDPSRTHQALGILSKTYDAASYICEAAFDEVKMAAHTMGNATVGRRYLWLKDCKINLASKNKLASTPFKGGTLFGGEVCKVIKKRGNKH
With B1, in assay [1], the binding entry was “binds”.

B2: HA-emerin, in vitro translated, P50402 1-254 (protein)
chain: MDNYADLSDTELTTLLRRYNIPHGPVVGSTRRLYEKKIFEYETQRRRLSPPSSSAASSYSFSDLNSTRGDADMYDLPKKEDALLYQSKGYNDDYYEESYFTTRTYGEPESAGPSRAVRQSVTSFPDADAFHHQVHDDDLLSSSEEECKDRERPMYGRDSAYQSITHYRPVSASRSSLDLSYYPTSSSTSFMSSSSSSSSWLTRRAIRPENRAPGAGLGQDRQVPLWGQLLLFLVFVIVLFFIYHFMQAEEGNPF
With B2, the binding entry in assay [2] was “binds”.
